No constants are given. Whether binding was seen depends on the method and setting. In cells and extracts the contact can be indirect. Some entries that bind do so weakly or less than the wild type.
Biological target: YopN-GSK (Y. pestis) (UniProt P68640)
Test: cross-linking + co-IP

Sequences of proteins named here, by UniProt entry; tags and fusion partners are left off.
UniProt P68640: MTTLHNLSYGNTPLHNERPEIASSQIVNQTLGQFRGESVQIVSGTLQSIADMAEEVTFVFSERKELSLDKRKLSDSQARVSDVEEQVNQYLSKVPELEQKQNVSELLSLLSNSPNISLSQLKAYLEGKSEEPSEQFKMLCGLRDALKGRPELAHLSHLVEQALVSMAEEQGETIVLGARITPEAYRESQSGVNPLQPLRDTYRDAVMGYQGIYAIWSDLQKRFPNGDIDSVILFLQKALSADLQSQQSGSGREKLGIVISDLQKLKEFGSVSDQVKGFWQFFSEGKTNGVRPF
UniProt P69968: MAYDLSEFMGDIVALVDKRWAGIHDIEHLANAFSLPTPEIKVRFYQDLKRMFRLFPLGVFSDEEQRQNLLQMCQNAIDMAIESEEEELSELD

TyeA (from UniProt P69968 1-92)
binding: binds

Reference: publication PMC3553376
